Experimental data: publication PMC3355077

Amino acid sequences for entries named in this document (tags omitted). A change or cut given only in a name is not applied to a line headed by its entry. Chains listed by the source or under a name are the forms on record and can include a tag or linker.
Psip1/p52 (endogenous) (mouse (endogenous in NIH 3T3 and MEFs)) (Q99JF8, form named): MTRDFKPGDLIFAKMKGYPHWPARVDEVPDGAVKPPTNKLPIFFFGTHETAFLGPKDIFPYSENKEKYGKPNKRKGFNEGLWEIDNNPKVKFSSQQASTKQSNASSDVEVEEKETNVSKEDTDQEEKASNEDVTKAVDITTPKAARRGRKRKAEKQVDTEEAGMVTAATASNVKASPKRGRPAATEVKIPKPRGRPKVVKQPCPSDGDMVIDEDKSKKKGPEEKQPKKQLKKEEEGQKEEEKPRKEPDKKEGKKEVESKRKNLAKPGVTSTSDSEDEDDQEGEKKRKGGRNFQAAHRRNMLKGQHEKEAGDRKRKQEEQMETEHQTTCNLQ

B1: SF3B3 (protein, UniProt Q921M3 1-1217)
chain: MFLYNLTLQRATGISFAIHGNFSGTKQQEIVVSRGKILELLRPDPNTGKVHTLLTVEVFGVIRSLMAFRLTGGTKDYIVVGSDSGRIVILEYQPSKNMFEKIHQETFGKSGCRRIVPGQFLAVDPKGRAVMISAIEKQKLVYILNRDAAARLTISSPLEAHKANTLVYHVVGVDVGFENPMFACLEMDYEEADNDPTGEAAANTQQTLTFYELDLGLNHVVRKYSEPLEEHGNFLITVPGGSDGPSGVLICSENYITYKNFGDQPDIRCPIPRRRNDLDDPERGMIFVCSATHKTKSMFFFLAQTEQGDIFKITLETDEDMVTEIRLKYFDTVPVAAAMCVLKTGFLFVASEFGNHYLYQIAHLGDDDEEPEFSSAMPLEEGDTFFFQPRPLKNLVLVDELDSLSPILFCQIADLANEDTPQLYVACGRGPRSSLRVLRHGLEVSEMAVSELPGNPNAVWTVRRHIEDEFDAYIIVSFVNATLVLSIGETVEEVTDSGFLGTTPTLSCSLLGDDALVQVYPDGIRHIRADKRVNEWKTPGKKTIVKCAVNQRQVVIALTGGELVYFEMDPSGQLNEYTERKEMSADVVCMSLANVPPGEQRSRFLAVGLVDNTVRIISLDPSDCLQPLSMQALPAQPESLCIVEMGGTEKQDELGERGSIGFLYLNIGLQNGVLLRTVLDPVTGDLSDTRTRYLGSRPVKLFRVRMQGQEAVLAMSSRSWLSYSYQSRFHLTPLSYETLEFASGFASEQCPEGIVAISTNTLRILALEKLGAVFNQVAFPLQYTPRKFVIHPESNNLIIIETDHNAYTEATKAQRKQQMAEEMVEAAGEDERELAAEMAAAFLNENLPESIFGAPKAGNGQWASVIRVMNPIQGNTLDLVQLEQNEAAFSVAVCRFSNTGEDWYVLVGVAKDLILSPRSVAGGFVYTYKLVNNGEKLEFLHKTPVEEVPAAIAPFQGRVLIGVGKLLRVYDLGKKKLLRKCENKHIANYISGIQTIGHRVIVSDVQESFIWVRYKRNENQLIIFADDTYPRWVTTASLLDYDTVAGADKFGNICVVRLPPNTNDEVDEDPTGNKALWDRGLLNGASQKAEVIMNYHVGETVLSLQKTTLIPGGSESLVYTTLSGGIGILVPFTSHEDHDFFQHVEMHLRSEHPPLCGRDHLSFRSYYFPVKNVIDGDLCEQFNSMEPNKQKNVSEELDRTPPEVSKKLEDIRTRYAF
B2: Rbm39 (protein, UniProt Q8VH51 1-530)
chain: MADDIDIEAMLEAPYKKDENKLNSANGHEERSKKRKKSKSRSRSHERKRSKSKERKRSRDRERKKSKSRERKRSRSKERRRSRSRSRDRRFRGRYRSPYSGPKFNSAIRGKIGLPHSIKLSRRRSRSKSPFRKDKSPVREPIDNLTPEERDARTVFCMQLAARIRPRDLEEFFSTVGKVRDVRMISDRNSRRSKGIAYVEFVDVSSVPLAIGLTGQRVLGVPIIVQASQAEKNRAAAMANNLQKGSAGPMRLYVGSLHFNITEDMLRGIFEPFGRIESIQLMMDSETGRSKGYGFITFSDSECAKKALEQLNGFELAGRPMKVGHVTERTDASSASSFLDSDELERTGIDLGTTGRLQLMARLAEGTGLQIPPAAQQALQMSGSLAFGAVAEFSFVIDLQTRLSQQTEASALAAAASVQPLATQCFQLSNMFNPQTEEEVGWDTEIKDDVIEECNKHGGVIHIYVDKNSAQGNVYVKCPSIAAAIAAVNALHGRWFAGKMITAAYVPLPTYHNLFPDSMTATQLLVPSRR
B3: Acinus (protein, UniProt Q9JIX8 1-1338)
chain: MWGRKRPNSSGETRGILSGNRGVDYGSGRGQSGPFEGRWRKLPKMPEAVGTDPSTSRKMAELEEVTLDGKPLQALRVTDLKAALEQRGLAKSGQKSALVKRLKGALMLENLQKHSTPHAAFQPNSQIGEEMSQNSFIKQYLEKQQELLRQRLEREAREAAELEEASAESEDEMTHPEGVASLLPPDFQSSLNRPELELSTHSPRKSSSFSEEKGESDDEKPRKGERRSSRVRQAKSKLPEYSQTAEEEEDQETPSRNLRVRADRNLKIEEEEEEEEEEEDDDDEEEEEVDEAQKSREAEAPTLKQFEDEEGEERTRAKPEKVVDEKPLNIRSQEKGELEKGGRVTRSQEEARRSHLARQQQEKETQIVSLPQEENEVKSSQSLEEKSQSPSPPPLPEDLEKAPVVLQPEQIVSEEETPPPLLTKEASSPPTHIQLQEEMEPVEGPAPPVLIQLSPPNTDAGAREPLASPHPAQLLRSLSPLSGTTDTKAESPAGRVSDESVLPLAQKSSLPECSTQKGVESEREKSAPLPLTVEEFAPAKGITEEPMKKQSLEQKEGRRASHALFPEHSGKQSADSSSSRSSSPSSSSSPSRSPSPDSVASRPQSSPGSKQRDGAQARVHANPHERPKMGSRSTSESRSRSRSRSRSASSSSRKSLSPGVSRDSNTSYTETKDPSCGQEAAAPSGPQLQVLEPKEKAPTFSASVRGRHLSHPEPEQQHVIQRLQPEQGSPKKCEAEEAEPPAATQPQTSETQISHLLESERTHHTVEEKEEVTMDTSENRPENEVPEPPLPVADQVSNDERPEGGAEEEEKKESSMPKSFKRKISVVSATKGVQAGNSDTEGGQPGRKRRWGASTAATQKKPSISITTESLKSLIPDIKPLAGQEAVVDLHADDSRISEDETERNGDDGTHDKGLKICRTVTQVVPAEGQENGQREEEEEKEPEAELPAPPQVSVEVALPPPVEHEVKKVTLGDTLTRRSISQQKSGVSITIDDPVRTAQVPSPPRGKISNIVHISNLVRPFTLGQLKELLGRTGTLVEEAFWIDKIKSHCFVTYSTVEEAVATRTALHGVKWPQSNPKFLCADYAEQDELDYHRGLLVDRPSETKAEEQGAPRPLHPPPPPPVQPPPHPRAEQREQERAVREQWAEREREMERRERTRSEREWDRDKVREGPRSRSRSRDRRRKERAKSKEKKSEKKEKAQEEPPAKLLDDLFRKTKAAPCIYWLPLTESQIVQKEAEQAERAKEREKRRKEREEEEQKEREKEAERERNRQLEREKRREHSRERERDRERERDRGDRERERERDRDRGRERDRRDTKRHSRSRSRSTPVRDRGGRR
B4: U5 100K (protein, UniProt D3Z0M9 1-819)
chain: MAGELADKKDRDASPKEERKRSRTPERDRDRDRDRKSSPSKDRKRHRSRDRRRGGSRSRSRSRSKSVERERRHKERERDKERDRSKKERERDKDGHRRDKDRKRSSLSPGRGKDFKSRKDRDSKKGDEDEHGDKRPKIQPLSLEELLAKKKAEEEAEAKPKFLSKAEREAEALKRRQQEVEERQKMLEEERKKRKQFQDLGRKMLEDPQERERRERRERMERETNGNEDEEGRQKIREEKDKSKELHAIKERYLGGIKKRRRTRHLNDRKFVFEWDASEDTSIDYNPLYKERHQVQLLGRGFIAGIDLKQQKREQSRFYGDLMEKRRTLEEKEQEEARLRKLRKKEAKQRWDDRHWSQKKLDEMTDRDWRIFREDYSITTKGGKIPNPIRSWKDSSLPPHILEVIDKCGYKEPTPIQRQAIPIGLQNRDIIGVAETGSGKTAAFLIPLLVWITTLPKIDRIEESDQGPYAIILAPTRELAQQIEEETIKFGKPLGIRTVAVIGGISREDQGFRLRMGCEIVIATPGRLIDVLENRYLVLSRCTYVVLDEADRMIDMGFEPDVQKILEHMPVSNQKPDTDEAEDPEKMLANFESGKHKYRQTVMFTATMPPAVERLARSYLRRPAVVYIGSAGKPHERVEQKVFLMSESEKRKKLLAILEQGFDPPIIIFVNQKKGCDVLAKSLEKMGYNACTLHGGKGQEQREFALSNLKAGAKDILVATDVAGRGIDIQDVSMVVNYDMAKNIEDYIHRIGRTGRAGKSGVAITFLTKEDSAVFYELKQAILESPVSSCPPELANHPDAQHKPGTILTKKRREETIFA
B5: Srsf4 (protein, UniProt Q8VE97 1-489)
chain: MPRVYIGRLSYQARERDVERFFKGYGKILEVDLKNGYGFVEFDDLRDADDAVYELNGKDLCGERVIVEHARGPRRDGSYGSGRSGYGYRRSGRDKYGPPTRTEYRLIVENLSSRCSWQDLKDYMRQAGEVTYADAHKGRKNEGVIEFVSYSDMKRALEKLDGTEVNGRKIRLVEDKPGSRRRRSYSRSRSHSRSRSRSRHSRKSRSRSGSSKSSHSKSRSRSRSGSHSRSKSRSRSQSRSRSKKEKSRSPSKDNKSRSRSRSPDKSRSKSKDHAEDKLQNNDSAGKAKSHSPSRHDSKSRSRSQERRAEEERRRSVSRARSQEKSRSQEKSLLKSRSRSRSRSRSRSKDKRKGRKRSRDESRSRSRSKSERSRKHSSKRDSKVSSSSSSSKKKKDTDHSRSPSRSVSKEREHAKAESGQRGSRAEGESEAPNPEPRARSRSTSKSKPNVPAESRSRSKSASKTRSRSKSPSRSASRSPSRSRSRSHSRS
B6: DDX 50 (protein, UniProt Q99MJ9 1-734)
chain: MPGKLLWGDIMELEAPLEESESQRKERQKSDRRKSRHHSESEERTETRENGVTDDLDAPKPKKAKMREKLNGDTKEGLRFSDEFSPSHKSRRKDLPNGDVDEYEKRSKRVSSSENSHKSSDKAEETLTREQKEGAFSNFSISEETIKLLKGRGVTYLFPIQVKTFGPVYEGKDLIAQARTGTGKTFSFAIPLIERLQRNQETIKKSRSPKVLVLAPTRELANQVAKDFKDITRKLSVACFYGGTSYQSQINQIRNGIDILVGTPGRIKDHLQSGRLDLSKLRHVVLDEVDQMLDLGFAEQVEDIIHESYKTDSEDNPQTLLFSATCPQWVYKVAKKYMKSRYEQVDLVGKMTQKAATTVEHLAIQCHWSQRPAVIGDVLQVYSGSEGRAIIFCETKKNVTEMAMNPHIKQNAQCLHGDIAQSQREITLKGFREGSFKVLVATNVAARGLDIPEVDLVIQSSPPQDVESYIHRSGRTGRAGRTGICVCFYQPRERGQLRYVEQKAGITFKRVGVPSTMDLVKSKSMDAIRSLASVSYAAVDFFRPSAQRLIEEKGAVDALAAALAHISGASSFEPRSLITSDKGFVTMTLESPEEIQDVSCAWKELNRKLSSNAVSHVTRMCLLKGNMGVCFDVPTSESERLQAEWHDSDWILSVPAKLPEIEEYYDGNTSSNPRQRSGWSGGRSGRSGRSGGRSGGRSGRQSRQGSRSGSRQDGRRRSGNRNRSRSGGHKRNFD
B7: Srsf 3 (protein, UniProt P84104 1-164)
chain: MHRDSCPLDCKVYVGNLGNNGNKTELERAFGYYGPLRSVWVARNPPGFAFVEFEDPRDAADAVRELDGRTLCGCRVRVELSNGEKRSRNRGPPPSWGRRPRDDYRRRSPPPRRRSPRRRSFSRSRSRSLSRDRRRERSLSRERNHKPSRSFSRSRSRSRSNERK
B8: Srsf10 (alias Tra2b) (protein, UniProt P62996 1-288)
chain: MSDSGEQNYGERESRSASRSGSAHGSGKSARHTPARSRSKEDSRRSRSKSRSRSESRSRSRRSSRRHYTRSRSRSRSHRRSRSRSYSRDYRRRHSHSHSPMSTRRRHVGNRANPDPNCCLGVFGLSLYTTERDLREVFSKYGPIADVSIVYDQQSRRSRGFAFVYFENVDDAKEAKERANGMELDGRRIRVDFSITKRPHTPTPGIYMGRPTYGSSRRRDYYDRGYDRGYDDRDYYSRSYRGGGGGGGGWRAAQDRDQIYRRRSPSPYYSRGGYRSRSRSRSYSPRRY

Biological target: Psip1/p52 (endogenous) (mouse (endogenous in NIH 3T3 and MEFs)) (UniProt Q99JF8)
Experiment: affinity purification with mass spectrometry; A300-847 IP from NIH 3T3 nuclear extract, washes with 200 mM KCl; gel bands analysed by MS/MS (Mascot)

binding, binds:
B1
B2
B3
B4
B5
B6
B7
B8

No constants are given. Whether binding was seen depends on the method and setting. In cells and extracts the contact can be indirect. Here binding means that the protein was enriched with, or labelled near, the bait; the list need not be complete.
